Data taken from PubChem BioAssay AID493220 (National Center for Advancing Translational Sciences (NCATS), 2011).
Inconclusive results, whose numbers are uncertain, are shown with a selection of clear calls. A potency beside an inconclusive call is a rough fit, not a confirmed value. Activity calls are given as the source filed them. Calls follow the shape of the full dose curve.

Amino acid sequences for entries named in this document (tags omitted). A change or cut given only in a name is not applied to a line headed by its entry.
UniProt P16050: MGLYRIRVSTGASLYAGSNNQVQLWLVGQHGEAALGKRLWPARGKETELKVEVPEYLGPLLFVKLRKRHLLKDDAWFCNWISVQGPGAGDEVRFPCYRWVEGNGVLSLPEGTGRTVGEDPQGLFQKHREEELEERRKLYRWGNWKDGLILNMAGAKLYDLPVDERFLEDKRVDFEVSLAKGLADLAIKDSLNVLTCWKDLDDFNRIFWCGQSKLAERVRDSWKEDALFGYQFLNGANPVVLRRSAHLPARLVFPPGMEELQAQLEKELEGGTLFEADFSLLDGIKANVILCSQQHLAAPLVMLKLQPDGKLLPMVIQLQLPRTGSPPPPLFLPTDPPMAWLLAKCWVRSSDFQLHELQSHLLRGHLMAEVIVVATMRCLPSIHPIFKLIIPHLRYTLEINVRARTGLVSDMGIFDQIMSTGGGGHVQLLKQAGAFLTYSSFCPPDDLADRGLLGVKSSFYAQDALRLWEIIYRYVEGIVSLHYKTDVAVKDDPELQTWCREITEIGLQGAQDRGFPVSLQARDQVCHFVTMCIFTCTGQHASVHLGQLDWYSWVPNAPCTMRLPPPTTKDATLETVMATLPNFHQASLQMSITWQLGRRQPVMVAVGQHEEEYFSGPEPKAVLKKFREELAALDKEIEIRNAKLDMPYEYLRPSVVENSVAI

Target: Polyunsaturated fatty acid lipoxygenase ALOX15 (Homo sapiens) (UniProt P16050)
Assay: Inhibitors of 12-hLO (12-human lipoxygenase): 15hLO-1 Cuvette-Based Inhibition Counterscreen Assay for 12hLO Followup Compounds
Conditions: purified 15hLO-1, UV 234 nm product formation
Protocol: Human lipoxygenase 15hLO-1 is a member of the closely related lipoxygenase family of enzymes which catalyze the site-specific oxidation of arachidonic acid to various hormone precursor molecules and as such is a candidate for drug development in a variety of disease areas, such as cancer and inflammation. The enzyme activity of 15hLO-1 was determined by a direct measurement of product formation by monitoring the absorbance at 234 nm in a 2 mL cuvette. IC50 values of inhibitors were obtained by measuring the enzymatic rate at a variety of concentrations (Carroll et al, Segraves et al). A purified preparation of human 15hLO-1 was supplied by Professor Ted Holman, University of California, Santa Cruz. This assay was run against 12hLO followup compounds with the goal of identifying selective 12hLO inhibitors. Assay Provider: Holman, T.R., University of California, Santa Cruz Screening Center PI: Austin, Christopher P. Screening Center: NIH Chemical Genomics Center
For control experiments, 2 mL of substrate buffer (10 uM arachidonic acid / 25 mM HEPES / 0.01% (v/v) Triton X-100, pH 8.0) was aliquoted in a cuvette with a magnetic stir bar. After equilibrium was ensured, an aliquot of inhibitor solvent was added (DMSO), and equilibrium was once again assured. The reaction was started by adding enzyme to the cuvette and the reaction was followed until completed. The inhibition experiments were performed as above, except the actual inhibitory compound was added instead of vehicle. To achieve an IC50, typically 5 concentrations of the inhibitor were studied. If the inhibitor concentration was constant, then five different reaction volumes were used. Step \ Parameter \ Value \ Description 1; UV-Vis; 234 nm; Equilibration 2; Reagent; 2 mL; Substrate buffer 3; UV-Vis; 234 nm; Equilibration 4; Reagent; varies; Compound 5; UV-Vis; 234 nm; Equilibration 6; Reagent; 50-200 nM; Enzyme 12-hLO 7; UV-Vis; 234 nm; Enzymatic reaction Step \ Notes 1; Blank cuvette to air. 2; 10 uM AA, 25 mM HEPES, 0.01% Triton X-100, pH 8. 3; No change in absorbance ensured. […] 5; No change in absorbance ensured. […]

SMILES	Potency
Cc1nc(N)sc1-c1csc(N(C)c2ccc(O)cc2)n1	inconclusive: 118 µM [inhibitor]
Cc1cc(C)c2cc(CN(Cc3nnnn3C3CCCCC3)CC3CCCO3)c(=O)[nH]c2c1 (stereo not drawn)	inconclusive: 118 µM [inhibitor]
Oc1ccccc1-c1cc(-c2cccc(F)c2)n[nH]1	active: 4.81 µM
